Reference: patent US20180139962A1, “FUNGICIDAL N-CYCLOALKYL-N-{[ORTHO-(1-SUBSTITUTED-CYCLOALKYL)HETEROARYL]METHYL}PYRAZOLE(THIO)CARBOXAMIDS” (Bayer CropScience Aktiengesellschaft, priority 2015, published 2018)
Some of these results come from one statement about several compounds together.

Test system: Uromyces appendiculatus
Assay: In vivo preventive test on Uromyces appendiculatus (bean rust)
Details: 100 ppm of active ingredient; bean plants sprayed 24 hours before inoculation; evaluated 11 days after the inoculation
Experimental: EXAMPLE B: IN VIVO PREVENTIVE TEST ON UROMYCES APPENDICULATUS (BEAN RUST) Solvent: 5% by volume of Dimethyl sulfoxide • 10% by volume of Acetone Emulsifier: 1 μL of Tween® 80 per mg of active ingredient The active ingredients are made soluble and homogenized in a mixture of Dimethyl sulfoxide/Acetone//Tween® 80 and then diluted in water to the desired concentration. The young plants of bean are treated by spraying the active ingredient prepared as described above. Control plants are treated only with an aqueous solution of Acetone/Dimethyl sulfoxide/Tween® 80. After 24 hours, the plants are contaminated by spraying the leaves with an aqueous suspension of Uromyces appendiculatus spores. The contaminated bean plants are incubated for 24 hours at 20° C. and at 100% relative humidity and then for 10 days at 20° C. and at 70-80% relative humidity. The test is evaluated 11 days after the inoculation. 0% means an efficacy which corresponds to that of the control plants while an efficacy of 100% means that no disease is observed.

SMILES	efficacy
Cc1cc(C(C)C)c(CN(C(=O)c2c(C(F)F)nn(C)c2Cl)C2CC2)s1 [CMP2, 5-chloro-N-cyclopropyl-3-(difluoromethyl)-N-[(3-isopropyl-5-methyl-2-thienyl)methyl]-1-methyl-1H-pyrazole-4-carboxamide]	less than 70%
Cc1cc(C(C)C)c(CN(C(=O)c2c(C(F)F)nn(C)c2F)C2CC2)s1 [CMP1, N-cyclopropyl-3-(difluoromethyl)-5-fluoro-N-[(3-isopropyl-5-methyl-2-thienyl)methyl]-1-methyl-1H-pyrazole-4-carboxamide]	less than 70%
